Results as given in the supplement of paper PMC10849652.
The list shows a part of the results.

Amino acid sequences for entries named in this document (tags omitted). A change or cut given only in a name is not applied to a line headed by its entry.
UniProt O75438, whole entry, looked up: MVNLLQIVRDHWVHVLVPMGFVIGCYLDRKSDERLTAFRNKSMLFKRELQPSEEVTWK
UniProt O95096: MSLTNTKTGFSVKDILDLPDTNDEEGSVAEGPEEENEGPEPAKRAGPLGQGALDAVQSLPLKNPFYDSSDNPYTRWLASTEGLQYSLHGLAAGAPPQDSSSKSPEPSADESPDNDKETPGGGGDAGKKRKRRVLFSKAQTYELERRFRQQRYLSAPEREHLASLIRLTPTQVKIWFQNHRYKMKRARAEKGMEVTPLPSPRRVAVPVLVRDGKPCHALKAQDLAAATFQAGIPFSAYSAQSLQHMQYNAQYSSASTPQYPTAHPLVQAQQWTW
UniProt O43181, whole entry, looked up: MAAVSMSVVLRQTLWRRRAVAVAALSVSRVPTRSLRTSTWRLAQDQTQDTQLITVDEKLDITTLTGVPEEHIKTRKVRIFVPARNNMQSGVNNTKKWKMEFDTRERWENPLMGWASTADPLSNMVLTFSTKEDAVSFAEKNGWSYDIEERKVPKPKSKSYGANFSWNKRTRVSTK
UniProt P51970, whole entry, looked up: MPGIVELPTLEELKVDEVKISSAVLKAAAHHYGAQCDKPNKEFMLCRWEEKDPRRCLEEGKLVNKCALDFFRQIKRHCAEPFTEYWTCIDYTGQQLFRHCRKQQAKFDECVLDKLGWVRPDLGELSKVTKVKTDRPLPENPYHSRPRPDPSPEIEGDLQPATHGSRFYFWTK
UniProt O43674, whole entry, looked up: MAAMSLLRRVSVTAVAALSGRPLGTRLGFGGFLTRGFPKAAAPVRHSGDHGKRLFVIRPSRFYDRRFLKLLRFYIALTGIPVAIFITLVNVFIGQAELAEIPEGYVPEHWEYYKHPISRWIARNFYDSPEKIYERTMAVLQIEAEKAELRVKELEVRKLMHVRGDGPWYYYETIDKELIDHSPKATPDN
UniProt P19404, whole entry, looked up: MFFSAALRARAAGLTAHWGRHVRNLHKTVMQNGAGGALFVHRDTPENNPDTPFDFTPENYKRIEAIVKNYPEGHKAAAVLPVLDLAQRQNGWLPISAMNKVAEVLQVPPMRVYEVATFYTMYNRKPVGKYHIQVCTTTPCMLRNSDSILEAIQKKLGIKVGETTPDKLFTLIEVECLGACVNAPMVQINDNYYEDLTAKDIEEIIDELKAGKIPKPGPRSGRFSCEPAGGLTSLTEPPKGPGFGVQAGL
UniProt P48681: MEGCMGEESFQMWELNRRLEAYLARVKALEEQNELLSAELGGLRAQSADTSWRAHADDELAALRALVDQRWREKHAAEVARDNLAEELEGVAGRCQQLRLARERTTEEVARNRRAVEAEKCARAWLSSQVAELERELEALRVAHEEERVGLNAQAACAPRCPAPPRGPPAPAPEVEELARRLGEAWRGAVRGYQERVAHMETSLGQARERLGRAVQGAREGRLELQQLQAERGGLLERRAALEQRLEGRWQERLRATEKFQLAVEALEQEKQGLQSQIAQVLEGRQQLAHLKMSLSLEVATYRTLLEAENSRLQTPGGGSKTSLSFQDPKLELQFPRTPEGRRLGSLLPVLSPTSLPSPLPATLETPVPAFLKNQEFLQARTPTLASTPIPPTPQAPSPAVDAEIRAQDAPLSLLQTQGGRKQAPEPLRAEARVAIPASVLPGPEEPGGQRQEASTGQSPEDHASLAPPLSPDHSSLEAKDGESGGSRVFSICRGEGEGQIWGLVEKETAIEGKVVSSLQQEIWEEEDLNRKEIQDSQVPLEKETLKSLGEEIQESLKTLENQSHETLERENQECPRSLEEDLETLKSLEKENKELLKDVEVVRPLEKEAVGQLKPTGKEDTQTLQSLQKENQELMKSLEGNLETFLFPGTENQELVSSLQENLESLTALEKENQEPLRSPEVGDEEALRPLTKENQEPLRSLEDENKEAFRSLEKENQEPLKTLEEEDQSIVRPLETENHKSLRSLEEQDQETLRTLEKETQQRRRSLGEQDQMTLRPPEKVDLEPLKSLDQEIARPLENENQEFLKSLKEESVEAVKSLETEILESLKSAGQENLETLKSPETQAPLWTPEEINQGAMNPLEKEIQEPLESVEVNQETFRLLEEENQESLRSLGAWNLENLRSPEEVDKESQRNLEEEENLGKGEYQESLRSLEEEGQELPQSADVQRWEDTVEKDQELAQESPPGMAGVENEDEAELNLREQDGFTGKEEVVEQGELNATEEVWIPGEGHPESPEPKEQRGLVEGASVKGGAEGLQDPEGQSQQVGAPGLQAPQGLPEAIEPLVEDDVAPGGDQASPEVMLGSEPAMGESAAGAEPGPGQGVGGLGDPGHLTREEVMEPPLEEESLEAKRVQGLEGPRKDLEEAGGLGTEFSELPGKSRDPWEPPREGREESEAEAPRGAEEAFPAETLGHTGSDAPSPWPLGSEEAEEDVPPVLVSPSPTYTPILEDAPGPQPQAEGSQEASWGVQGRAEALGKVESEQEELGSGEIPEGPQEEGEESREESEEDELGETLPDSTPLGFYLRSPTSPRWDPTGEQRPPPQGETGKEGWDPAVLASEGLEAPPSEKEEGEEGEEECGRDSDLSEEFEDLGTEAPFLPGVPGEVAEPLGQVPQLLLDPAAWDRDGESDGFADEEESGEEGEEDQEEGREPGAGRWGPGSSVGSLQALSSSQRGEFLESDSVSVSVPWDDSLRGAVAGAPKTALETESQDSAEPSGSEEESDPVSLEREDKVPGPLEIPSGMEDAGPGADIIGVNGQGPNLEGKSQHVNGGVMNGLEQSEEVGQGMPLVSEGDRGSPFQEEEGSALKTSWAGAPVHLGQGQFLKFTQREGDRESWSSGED
UniProt Q96PU5: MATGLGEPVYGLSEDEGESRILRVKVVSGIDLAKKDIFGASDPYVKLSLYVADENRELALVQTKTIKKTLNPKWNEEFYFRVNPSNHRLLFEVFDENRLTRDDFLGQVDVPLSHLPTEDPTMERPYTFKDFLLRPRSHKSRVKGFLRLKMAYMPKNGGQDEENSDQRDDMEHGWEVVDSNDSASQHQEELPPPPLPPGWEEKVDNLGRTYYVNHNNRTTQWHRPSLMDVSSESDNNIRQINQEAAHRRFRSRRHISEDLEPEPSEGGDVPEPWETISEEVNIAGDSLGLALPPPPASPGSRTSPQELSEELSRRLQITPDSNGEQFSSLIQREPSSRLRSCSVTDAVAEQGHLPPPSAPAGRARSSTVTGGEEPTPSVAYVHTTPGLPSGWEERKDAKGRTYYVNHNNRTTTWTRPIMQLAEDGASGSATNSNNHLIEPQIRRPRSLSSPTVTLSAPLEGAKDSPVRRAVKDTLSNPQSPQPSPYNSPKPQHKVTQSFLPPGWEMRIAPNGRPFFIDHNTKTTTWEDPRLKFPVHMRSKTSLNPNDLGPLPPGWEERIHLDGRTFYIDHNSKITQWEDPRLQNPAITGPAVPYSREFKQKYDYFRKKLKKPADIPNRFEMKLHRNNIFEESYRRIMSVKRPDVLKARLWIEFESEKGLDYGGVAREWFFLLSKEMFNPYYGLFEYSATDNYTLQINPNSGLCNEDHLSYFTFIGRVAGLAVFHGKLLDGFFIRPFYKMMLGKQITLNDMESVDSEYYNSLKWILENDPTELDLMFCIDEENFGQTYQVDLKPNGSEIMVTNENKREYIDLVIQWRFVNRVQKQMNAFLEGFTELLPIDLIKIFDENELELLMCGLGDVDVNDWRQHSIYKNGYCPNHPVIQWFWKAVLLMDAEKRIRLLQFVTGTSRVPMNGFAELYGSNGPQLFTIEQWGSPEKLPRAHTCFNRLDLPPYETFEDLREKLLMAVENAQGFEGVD
UniProt Q5TEU4: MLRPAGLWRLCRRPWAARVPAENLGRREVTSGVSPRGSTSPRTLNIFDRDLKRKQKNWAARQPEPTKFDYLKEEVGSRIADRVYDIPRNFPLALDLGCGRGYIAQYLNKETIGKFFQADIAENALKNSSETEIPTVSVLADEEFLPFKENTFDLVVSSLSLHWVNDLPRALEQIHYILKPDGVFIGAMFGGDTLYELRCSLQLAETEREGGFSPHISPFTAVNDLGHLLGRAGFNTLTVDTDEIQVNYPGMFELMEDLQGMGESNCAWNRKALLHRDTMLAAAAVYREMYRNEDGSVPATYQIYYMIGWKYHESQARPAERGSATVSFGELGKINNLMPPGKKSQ
UniProt Q7RTP0: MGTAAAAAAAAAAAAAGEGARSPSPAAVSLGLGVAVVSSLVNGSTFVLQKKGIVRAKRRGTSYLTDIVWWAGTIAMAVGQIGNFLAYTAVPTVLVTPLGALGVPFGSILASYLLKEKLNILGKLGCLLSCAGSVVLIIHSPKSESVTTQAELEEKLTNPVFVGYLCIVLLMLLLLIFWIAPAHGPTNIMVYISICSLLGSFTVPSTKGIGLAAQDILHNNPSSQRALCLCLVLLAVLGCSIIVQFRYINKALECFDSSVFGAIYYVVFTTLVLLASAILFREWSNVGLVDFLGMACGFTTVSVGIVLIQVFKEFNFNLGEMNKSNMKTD

Assays:
Test in all cases: log2 fold change, soluble protein after heating vs DMSO (PISA); higher = thermal stabilisation; K562 lysate, 10 uM; active = over 0.2 and 3.5 SD of the protein, either way, in both replicates (recomputed)
[1] = compound: C#Cc1cccc(Nc2ncnc3cc(OCCOC)c(OCCOC)cc23)c1 [erlotinib]
How it was run: (§1)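 K562 pellets were dounce-homogenised in PBS pH 7.4 containing 1 mM MgCl2, and the crude extract, at 1 mg/mL protein, was exposed to 10 μM compound for 30 min. Aliquots were heated for 3 min across 48°C-58°C, pooled, brought to 0.5% NP-40 at 4°C and spun at 21,000xg for 90 min, with the supernatant taken as soluble protein. TMTpro 16plex LC-MS/MS with equalised channel sums quantified that protein. Values are log-two fold changes in thermal stability relative to solvent controls, taken from duplicates.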

[2] = compound: C/C(=N\NC(=O)C1=CC(=CC=C1)S(=O)(=O)N2CCOCC2)/C3=C(C=CC(=C3)Cl)O
How it was run: as §1

[3] = compound: C1=CC(=CC=C1C2=NC3=C(N2)C=C(C=C3)C(=O)N)OC4=CC=C(C=C4)Cl
How it was run: as §1

[4] = compound: C1=CC2=C(C=CC(=C2)/C=C\3/C(=O)NC(=NCC4=CC=CS4)S3)N=C1
How it was run: as §1

[5] = compound: C1=CC2=NC=CN=C2C=C1/C=C/3\C(=O)NC(=O)S3
How it was run: as §1

[6] = compound: C1=CC=C(C=C1)C2=NC(=C(N2)C3=CC=NC=C3)C4=CC(=C(C=C4)Cl)O
How it was run: as §1

[7] = compound: C1=CC=C2C(=C1)C3=NNC4=CC=CC(=C43)C2=O
How it was run: as §1

[8] = compound: C1COCCN1CCN2C3=CC=CC=C3N=C2NC(=O)C4=CC(=CC=C4)[N+](=O)[O-] [IRAK-1-4 Inhibitor I]
How it was run: as §1

[9] = compound: C=CC(=O)N1CCC[C@@H](n2nc(-c3ccc(Oc4ccccc4)cc3)c3c(N)ncnc32)C1 [ibrutinib]
How it was run: as §1

[10] = compound: CC(C)(C)Cn1c(N)nc2ccc(-c3[nH]c(C(C)(C)C)nc3-c3ccc(F)cc3)nc21 [ralimetinib]
How it was run: as §1

[11] = compound: CC(C)(O)CC(=O)NCCn1ccc2ncnc(Nc3ccc(Oc4cccc(C(F)(F)F)c4)c(Cl)c3)c21
How it was run: as §1

[12] = compound: CC(C)C1=C2N=C(C=C(N2N=C1)NCC3=CC=CC=C3)NCCCCCCN
How it was run: as §1

[13] = compound: CC1=C(C(CC(=O)N1)C2=CC=C(C=C2)C(F)(F)F)C(=O)NC3=C(C=C4C(=C3)C=NN4)F
How it was run: as §1

[14] = compound: CC1=C(C2=C(C=C1)C(=O)C3=CC=CC=C3N2CCCN)C
How it was run: as §1

[15] = compound: CC1=C(C=C(C=C1)NC(=O)C2=CC(=CC=C2)C(C)(C)C#N)NC3=CC4=C(C=C3)N=CN(C4=O)C
How it was run: as §1

[16] = compound: CC1=C(C=C(C=C1)NC(=O)C2=CC(=CC=C2)N(C)C)NC(=O)C3=CC=C(C=C3)O
How it was run: as §1

[17] = compound: C1CCN(C1)C(=O)NC2=CC=CC(=C2)NC3=NC=C(C(=N3)NCCC4=CN=CN4)Br
How it was run: as §1

[18] = compound: C1CN(CCC1(CC2=CC=C(C=C2)Cl)N)C3=NC=NC4=C3C=CN4
How it was run: as §1

[19] = compound: CC(=O)c1cnc2ccc(-c3cc(Cl)c(O)c(Cl)c3)nc2c1N[C@H]1CC[C@H](CN(C)C)CC1
How it was run: as §1

[20] = compound: CC1=CC=C(C=C1)SC2=C3C=C(SC3=CN=C2)C(=O)N
How it was run: as §1

Measured: log2 fold change

NDUFB1 (UniProt O75438)
inactive: [1] -0.014 | [2] -0.096 | [3] -0.082 | [4] -0.022 | [5] 0.021 | [6] -0.131 | [7] 0.013 | [8] 0.05 | [9] -0.063 | [10] 0.069 | [11] -0.069 | [12] -0.053 | [13] 0.013 | [14] 0.002 | [15] 0.009 | [16] 0.008

NKX2-2 (UniProt O95096)
inactive: [1] 0.146 | [2] 0.049 | [3] 0.17 | [4] -0.04 | [5] 0.007 | [6] -0.048 | [7] -0.129 | [17] 0.009 | [18] 0.086 | [8] 0.026 | [9] 0.147 | [19] -0.1 | [10] -0.006 | [11] -0.391 | [12] 0.031 | [15] 0.253 | [16] -0.062 | [20] -0.176

NDUFS4 (UniProt O43181)
inactive: [1] 0.032 | [2] -0.094 | [3] 0.057 | [4] -0.021 | [5] -0.02 | [6] 0.004 | [7] -0.031 | [17] -0.02 | [18] 0.015 | [8] -0.047 | [9] 0.047 | [19] 0.011 | [10] -0.017 | [11] -0.065 | [12] -0.008 | [13] -0.005 | [14] -0.039 | [15] 0.001 | [16] 0.028 | [20] -0.005

NEU4 (UniProt C9JEA3)
inactive: [1] -0.021 | [2] -0.152 | [3] 0.121 | [4] -0.003 | [5] 0.034 | [6] -0.073 | [7] -0.014 | [8] -0.044 | [9] -0.063 | [10] -0.026 | [11] -0.135 | [12] -0.053 | [13] 0.018 | [14] -0.034 | [15] -0.051 | [16] 0.051

NDUFA8 (UniProt P51970)
inactive: [1] -0.04 | [2] 0.06 | [3] -0.069 | [4] 0.021 | [5] -0.019 | [6] 0.126 | [7] -0.01 | [17] 0.032 | [18] 0.013 | [8] -0.026 | [9] -0.017 | [19] 0.011 | [10] -0.048 | [11] 0.002 | [12] 0.018 | [13] 0.018 | [14] 0.044 | [15] -0.012 | [16] -0.031 | [20] -0.004

NDUFB5 (UniProt O43674)
inactive: [1] -0.021 | [2] -0.041 | [3] -0.065 | [4] 0.02 | [5] 0.014 | [6] -0.042 | [7] -0.017 | [17] 0.044 | [18] 0.007 | [8] -0.013 | [9] -0.016 | [19] 0.004 | [10] 0.005 | [11] 0.014 | [12] -0.018 | [13] 0.015 | [14] -0.015 | [15] -0.021 | [16] 0.036 | [20] 0.002

NDUFV2 (UniProt P19404)
inactive: [1] -0.023 | [2] -0.081 | [3] 0.078 | [4] -0.015 | [5] -0.035 | [6] 0.018 | [7] 0.008 | [17] 0.025 | [18] 0.048 | [8] 0.005 | [9] 0.054 | [19] -0.007 | [10] -0.056 | [11] -0.04 | [12] -0.013 | [13] -0.019 | [14] -0.017 | [15] 0.009 | [16] -0.008 | [20] -0.012

NEB isoform 3 (UniProt P20929)
inactive: [1] 0.146 | [2] 0.011 | [3] 0.143 | [4] -0.127 | [5] -0.054 | [6] -0.041 | [7] -0.22 | [8] 0.115 | [9] -0.05 | [19] -0.026 | [10] 0.022 | [11] -0.25 | [12] 0.024 | [13] -0.062 | [14] -0.026 | [15] 0.05 | [16] -0.026 | [20] 0.099

NES (UniProt P48681)
inactive: [1] 0 | [2] 0.017 | [3] 0.015 | [4] 0.004 | [5] -0.002 | [6] 0.008 | [7] -0.015 | [17] 0.086 | [18] 0.09 | [8] -0.001 | [9] 0.056 | [19] 0.017 | [10] 0.02 | [11] -0.012 | [12] -0.028 | [13] 0.006 | [14] 0.009 | [15] 0.022 | [16] -0.01 | [20] -0.02

NEDD4L (UniProt Q96PU5)
inactive: [1] -0.043 | [2] 0.026 | [3] -0.022 | [4] 0.043 | [5] -0.005 | [6] -0.018 | [7] -0.024 | [17] 0.003 | [18] -0.014 | [8] 0.004 | [9] -0.081 | [19] -0.004 | [10] -0.009 | [11] -0.002 | [12] 0.03 | [13] -0.022 | [14] 0.005 | [15] -0.022 | [16] -0.006 | [20] 0.009

NDUFAF5 (UniProt Q5TEU4)
inactive: [1] -0.001 | [2] 0.027 | [3] 0.016 | [4] 0.021 | [5] -0.022 | [6] 0.009 | [7] 0.11 | [17] 0.193 | [18] -0.056 | [8] 0.07 | [9] -0.007 | [19] 0.021 | [10] -0.011 | [11] -0.008 | [12] -0.029 | [14] 0.043 | [15] 0.076 | [16] -0.026 | [20] -0.048

NIPA1 (UniProt Q7RTP0)
inactive: [1] -0.02 | [2] -0.043 | [3] -0.138 | [4] -0.073 | [5] 0.026 | [6] 0.024 | [7] 0.072 | [8] -0.034 | [9] 0.04 | [19] 0.034 | [10] 0.033 | [11] -0.04 | [12] 0.018 | [13] 0.056 | [15] -0.04 | [16] 0.036 | [20] 0.016
